# The other results are listed elsewhere or left out.
# System: T1, CTL2-GFP (C. trachomatis L2/434/Bu, GFP-expressing)
# T1 construct: L2/434/Bu, GFP-expressing
# Parameters: species or system HeLa; Intracellular C. trachomatis growth in HeLa cells, bulk GFP fluorescence relative to DMSO
# Details: bulk GFP, single well; 28.5 h, 10 µM; inhibitor
row,SMILES,% of control remaining [%]
1,Cc1ccc(CNC(=O)C2(c3ccccc3)CCCC2)cc1F [CBK161529],139.115
2,OCC(CO)(CO)NCc1ccc(-c2ccccc2)cc1 [CBK268742C],168.939
3,O=C(Nc1ccc(-n2cc(Cl)cn2)cc1)c1ccncc1 [CBK270249],113.964
4,CCNC(=O)C(C)NC(=O)c1cnn(-c2ccc(Br)cc2)c1C (centres unmarked) [CBK305021],131.378
5,OCCn1ncc2c(NCc3ccc(-n4cccn4)nc3)ncnc21 [CBK306326],100.573
6,COc1ccc(C(=O)Nc2ccccc2N2CCNCC2)cc1 [CBK029447T],103.796
7,C=C(C)Cn1c(SCCC(=O)OC)nc2sc3c(c2c1=O)CC(C)(C)OC3 [CBK026634],96.0031
8,CC(C)[C@H](CO)Nc1nc(-c2ccco2)cn2ccnc12 [CBK066316],101.9
9,c1ccc(Cn2cc(-c3cncn3CCCN3CCCCC3)cn2)cc1 [CBK281491],137.378
10,Cn1c(SCC(=O)NC(c2ccccc2)c2ccccc2)nnc1-c1ccncc1 [CBK266622],172.206
11,COc1cccc(OC)c1OCCN1CCNCC1 [CBK265089G],126.136
12,CC1CCCN(C(=O)C2C3CCC4(CC(=O)c5ccccc5O4)C32)C1 (centres unmarked) [CBK284932],62.0848
13,O=C(c1ccccc1)N1CCN(C(=O)c2ccco2)CC1 [CBK068314],110.646
14,COc1ccccc1CN(Cc1cccs1)C(=O)Cn1cnnn1 [CBK305866],106.211
15,COc1ccc([C@]23CN(C)C[C@H]2CCN(C(=O)Nc2cccc(Br)c2)C3)cc1OC [CBK075106T],94.3274
16,C=CCN1CCC(C(=O)NC(=O)NCC2COc3ccccc3O2)CC1 (centres unmarked) [CBK051099],111.608
17,CC(NC(=O)CC1CCN(Cc2cccc(C(F)(F)F)c2)CC1)c1nc2ccccc2[nH]1 (centres unmarked) [CBK285952],117.822
18,O=C(O)c1ccc(-c2c(Cl)cc([N+](=O)[O-])cc2Cl)o1 [CBK026623],110.55
19,NS(=O)(=O)c1ccc(NC(=O)c2ccc(COc3ccccc3)o2)cc1 [CBK267915],97.5574
20,COc1c(O)ccc(/C=N\NC(=O)C2COc3cc4ccccc4cc3O2)c1[N+](=O)[O-] (centres unmarked) [CBK262836],117.031
21,COc1ccc([C@@]23CC[C@@H](NC(=O)c4ccc(F)c(C(F)(F)F)c4)C[C@@H]2N(C)CC3)cc1OC [CBK074967T],104.137
22,Cc1nc(NC(=O)CCN2C(=O)COc3ccccc32)sc1-c1n[nH]c(=S)n1C [CBK295362],117.04
23,Cn1c(=O)n(CC(=O)O)c(=O)c2c1nc(Br)n2Cc1ccccc1 [CBK026617],105.429
24,COc1cc(N2CCCNCC2)ncn1 [CBK085485C],127.573
25,O=C(CSc1nnc(-c2cc(Br)ccc2O)[nH]1)NCCc1ccccc1 [CBK269007],118.72

row,SMILES,% of control remaining [%]
1,Cc1cc(C)n(S(=O)(=O)c2cc(C(=O)O)c(Cl)cc2Cl)n1 [CBK113170],118.623
2,Cc1cc(NS(=O)(=O)c2cccc(Cl)c2C)n[nH]1 [CBK024382],109.875
3,O=C(NCc1ccccc1)N1CCC(n2cnc3cccnc32)CC1 [CBK282281],97.8739
4,CCn1cc(C(=O)O)c(=O)c2cnc(N3CCN(C(=S)Nc4ccc5c(c4)OCCO5)CC3)nc21 [CBK267895],118.915
5,CC1CCc2nn(CCNC(=O)Cc3cccs3)c(=O)cc2C1 (centres unmarked) [CBK284465],111.076
6,O=C1OCCN1CCN1CCCN(Cc2ccc(F)cc2)CC1 [CBK304023],152.198
7,c1coc(-c2nc3cnccn3c2NC2CCCCC2)c1 [CBK283498],132.861
8,O=C(CSc1ncn(-c2ccccc2)n1)Nc1cc(Cl)cc(Cl)c1 [CBK268261],111.79
9,O=C(Cc1ccc([N+](=O)[O-])cc1)Nc1ccc(O)cc1C(=O)O [CBK265977],155.775
10,Cc1nc(N/N=C/c2ccc3c(c2)OCO3)sc1C [CBK263098],94.0367
11,CCOc1cc(CNCc2ccc(C(=O)O)cc2)ccc1OC [CBK270029C],151.779
12,Cc1nc(NC(=O)c2c(F)cccc2F)sc1C [CBK300495],139.787
13,C=CCC1(CC=C)CCN1C(=O)Cc1c(C)nc(SC)[nH]c1=O [CBK282661],123.731
14,COc1cccc2c1ncc1c(=O)nc(N)sc12 [CBK291241],144.239
15,COc1ccccc1C(NC(=O)C1CCN(CCn2cnc3c2c(=O)n(C)c(=O)n3C)CC1)c1ccccn1 (centres unmarked) [CBK147939],100
16,O=C(C1CC1)N1CCC2(CC1)Nc1ccccc1-n1cccc12 [CBK284011],132.632
17,Cc1csc2ncc(C(=O)Nc3ccc(F)c(Cl)c3)c(=O)n12 [CBK287460],99.3895
18,Cc1nc2ccc(C(=O)N3CCN(C(=O)c4ccc(Cl)cc4)CC3)cc2nc1C [CBK296647],162.583
19,CCCCOc1ccc(-c2nc(SCC(=O)O)c3c4c(sc3n2)COC(C)(C)C4)cc1 [CBK267716],110.206
20,CNC(=O)C(NC(=S)NC(=O)c1ccc(F)cc1)C(C)(C)C (centres unmarked) [CBK021945],106.982
21,CCNC(=O)C1CCN(C(=O)c2coc(COc3cccc(F)c3)n2)C1 (centres unmarked) [CBK307466],109.943
22,O=C(COc1cccc(Cl)c1)N/N=C\c1ccc(C(=O)O)cc1 [CBK262293],102.926
23,COc1cccc2cc(C(=O)C3=C(O)C(=O)N(CCCN4CCOCC4)C3c3ccc(C)cc3)oc12 (centres unmarked) [CBK266420],96.8374
24,CCOC(=O)c1[nH]c2ccccc2c1NS(=O)(=O)c1cccc(Cl)c1C [CBK047423],99.2718
25,COc1ccc2cc(/C=N/NC(=O)CN3CCCCC3)c(Cl)nc2c1 [CBK018181],130.879

# An excerpt from above in order of length of the SMILES, low to high.
row,SMILES,% of control remaining [%]
1,Cc1ccc(CNC(=O)C2(c3ccccc3)CCCC2)cc1F [CBK161529],139.115
20,COc1c(O)ccc(/C=N\NC(=O)C2COc3cc4ccccc4cc3O2)c1[N+](=O)[O-] (centres unmarked) [CBK262836],117.031
15,COc1ccccc1C(NC(=O)C1CCN(CCn2cnc3c2c(=O)n(C)c(=O)n3C)CC1)c1ccccn1 (centres unmarked) [CBK147939],100

# From article PMC12040169 (PLOS Biology, 2025)
